The values are deposited in ChEMBL (CHEMBL3988442, “University of Dundee, Small-Polar-MMV Screening Library” (2021)).

Mtb glucose medium: 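Whole-cell growth test on Mycobacterium tuberculosis, read after 3 days in glucose-containing 7H9 medium; the read-out is not stated. Tested at 50 µM. Higher reads as more growth inhibition (inferred: compounds with an IC50 in retests scored well above the rest). About 69,000 compounds were tested under these conditions; 1.1% (about 760) showed 50% or more at least once.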
Mtb cholesterol medium: 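Whole-cell growth test on Mycobacterium tuberculosis, read after 4 days in a medium based on cholesterol and the lipid DPPC; the read-out is not stated. Compounds at 50 µM. Direction is inferred from retests: higher values go with more growth inhibition. About 69,000 compounds were tested under these conditions; 0.54% (about 370) showed 50% or more at least once.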

The filed quantity is “Percent Effect” (%). The controls that fix the scale are not given in the record; negative values are as filed. This is an unselected part of the compounds tested. Two or more numbers in one place are separate tests of the same structure; such repeats can differ widely.

structure,Mtb glucose medium,Mtb cholesterol medium
Cc1ccc(-c2nc(C(=O)N(C)C3CCN(C)CC3)cs2)c(C)c1,-4.308,8.772
CC(C)c1nc(CN2CCOC(Cn3cccn3)C2)no1 (configuration not stated),-5.278,-17.53
c1ccc(N(CCn2cncn2)CC2CC2)cc1,-3.587,12.35
Cn1nc(Cn2cccn2)c2c1CN(C1CCOCC1)C2.O=C(O)C(F)(F)F,12.7,-5.846
O=S(=O)(Cc1ccccc1Cl)NCCCN1CCCC1,21.68,-15.76
CNC(=O)c1ccc(CN(C)c2ccc(C(F)(F)F)cn2)cc1,-12.09,2.566
[H][C@@]12CCN(C(N)=O)C[C@]1([H])[C@@H](CNC(=O)c1ccnnc1)OC2,-30.45 & -1.368,-1.991
Cc1cc(C)n(C2CCCN(C(=O)c3cnc4onc(C)c4c3)C2)n1 (configuration not stated),0.8814,0.6891
CC(C)(C(=O)NCCCc1nc2ccccc2[nH]1)n1cc(Cl)cn1,-0.9487 & 2.546,15.07
CCN1CCc2[nH]nc(C(=O)N3CCCC3C)c2C1.O=C(O)C(F)(F)F (configuration not stated),-22.54,-20.83
CN(C)C(=O)CC1CC2(CCN(Cc3cccs3)CC2)c2ccccc21.O=C(O)C(F)(F)F (configuration not stated),-3.186,-13.88
COC(=O)Cn1c(=O)nc2n1C(=O)N(c1ccc(F)cc1)C2,3.52,-31.72
CC(C)=CCN1CCN(C(C)c2cccnc2)CC1 (configuration not stated),13.94,-17.45
O=C(CN1CCc2ccccc2C1)NCc1ccco1,-46.58 & 13.71,-21.8
CNc1nc(CNC(=O)Nc2cccc(C)c2Cl)cs1,17.46,-2.853
CN(Cc1ccc(C#N)cc1)c1ncc(C(N)=O)cc1Cl,29.84,23.25
O=C(c1cnco1)N1CCCC(Cc2nccs2)C1 (configuration not stated),20.94,14.91
Cc1nc(C)c(C(=O)N2CCCC(n3ccnc3C)C2)s1 (configuration not stated),-6.339,-19.49
Cc1cc(NCCNc2ccc(C#N)cn2)nc(C)n1,-15.13,-10.53
CNC(=O)c1n[nH]c2c1C(c1cccc3nsnc13)CC(=O)N2 (configuration not stated),-8.687,-1.256
CC(C)c1nn(C)c(Cl)c1CNC1CCOc2ccccc21.Cl (configuration not stated),2.432,1.758
Cn1cc(S(=O)(=O)NCc2ccsc2)cn1,5.828,3.032
Cc1ccc(OCC(=O)NCc2ccccc2F)nc1,12.3,1.706
Cc1cc(C)cc(S(=O)(=O)NCC2CNCCOC2)c1 (configuration not stated),32.54,-11.49
Cc1nccn1-c1ccc(NS(=O)(=O)c2cnn(C)c2)cn1,-21.57,3.296
O=C1CCC(C(=O)Nc2cnn(-c3ccccc3Cl)c2)N1 (configuration not stated),-14.53,-4.476
O=C(O)C(F)(F)F.O=C1N(CC2CCCC2)CCC12CCN(c1ncc(F)cn1)CC2,-18.84,-0.565 & 8.994
Cc1noc(Cl)c1CCC(=O)N1CCN(CC(C)(C)O)CC1,-17.89,-21.23
Cc1cnn(CC2CCCN2C(=O)c2cc(C)nc3[nH]nc(C)c23)c1 (configuration not stated),-22.41,-25.7
Cc1ccnc(SCC(=O)Nc2csc3nc(=O)c(C)nn23)n1,-25.31,-24.12
CCc1ncc(C(=O)N2CCCN(C3CCCCC3)CC2)cn1,-41.63,-38.03
O=C(O)C(F)(F)F.O=C(O)C(F)(F)F.O=C1NCC[C@]12CN(Cc1ccncc1)C[C@H]2c1ccccc1,2.215 & 14.46,-13.99
Cc1ccc([C@@H]2CN(C(=O)c3ccsc3)C[C@H]2NC(=O)C2CC2)cc1,7.797,2.488
O=C(Cn1c(=O)nc2n1C(=O)N(c1ccccc1)C2)Nc1ccccc1,2.505,-18.57
CC(=O)Nc1nc(CN2CCOC(Cn3nc(C)cc3C)C2)cs1 (configuration not stated),-16.52,17.8
Cc1nnc(CCNC(=O)[C@H]2CNC[C@@H](C(=O)N3CCCC3)C2)s1,-7.004,-10.5
[H][C@@]12CCN(C(=O)c3cc(C)[nH]c3C)C[C@]1(c1nc(C)no1)CCO2,17.22 & -2.504,-0.9765
COC1CCCN(C(=O)NCCCF)C1 (configuration not stated),17.11,12.88
[H][C@@]12C[C@@H](c3nc(C)cs3)O[C@]1([H])CN(C(=O)c1cc(C)nn1CC)C2,0.4535,-7.708
Cc1nccn1-c1ccc(N2CCC(NC(C)C(C)C)CC2)cc1 (configuration not stated),-2.61,7.104 & 0.3427
[H][C@@]12CN(S(=O)(=O)N3CCCC3)C[C@]1([H])N(CCc1cccc(Cl)c1)C(=O)O2,5.859,3.473 & -12.66
CC(=O)N1CCC2(CC1)c1ncc(-c3ccccc3)n1CCN2C,20.08,7.551
Cc1cc(N2CCC(CO)(CC3CCCCO3)CC2)c2ccccc2n1 (configuration not stated),-6.765 & 9.711,13.69
Cn1nccc1-c1ncc(-c2cc(C(=O)O)n(CC3CC3)c2)cn1,-13.75,-7.577
CCn1ccnc1CN1CCN(c2ccc3nnc(C)n3n2)CC1,9.818 & 4.229,1.899
CC(=O)N(C)CC(=O)Nc1cnc(-n2ccnc2)nc1,1.876,6.71
Cc1cc(C)c2c(c1)C(NC(=O)CSc1nnc[nH]1)CCO2 (configuration not stated),-25.37,-12.87
C[C@H]1CCCCN1CCCNc1nccc(-c2c[nH][nH]c2=O)n1,-12.17,-10.16
Cn1cc(C(=O)N2CCCCC2CCc2ccc(O)cc2)cn1 (configuration not stated),-16.58,-0.6614
O=C(N1CCCCC1)N1CCN(CC(O)c2ccc(F)cc2)CC1 (configuration not stated),-13.8,-25.39
CCn1ccnc1C1CCN(Cc2c(F)cccc2F)CC1,-0.08306 & -2.751,-20.58
COc1ccnc(N2CCN(C(=O)Cc3ccc(C#N)cc3)CC2)n1,-2.823,4.024
Cc1sc(C(=O)NS(C)(=O)=O)cc1-c1ccc(F)cc1,-6.139,-14.57
CCn1ccnc1CN1CCN(c2nccc(OC)n2)CC1C (configuration not stated),0.2114 & 18.49,11.08
O=C(O)C(F)(F)F.O=C(O)C(F)(F)F.[H][C@]12CN(C)C[C@@]1(C(=O)O)CCCN(Cc1ccc(C)s1)C2,-8.27,16.59
NCc1cccc(NC(=O)CCN2CCOCC2)c1,-44.09,-19.71
C[C@@H]1C[C@H](C(F)(F)F)n2nc(C3CCN(C(=O)C(C)(C)C)CC3)cc2N1,14.98,-6.126
COc1ccc(-n2ccc(C(=O)NCCN3CCCCC3)n2)cc1,15.7,-4.957
Cc1cc(Cn2cncc(Br)c2=O)on1,-11.09,-0.1342
CN(C)c1ccnc(N2CCC(NCCOc3ccccc3)CC2)n1,-26.35,-39.83
Cc1nccn1-c1ccc(C(C)NCc2ncc[nH]2)cc1 (configuration not stated),-4.816 & 9.087,-1.053
CCSc1ccc(C(=O)N2CCC3(CC2)[C@H](O)C[C@@H]3O)s1,6.863 & 7.131,12.64

4 of the entries, repeated:

structure	Mtb glucose medium	Mtb cholesterol medium
C[C@H]1CCCCN1CCCNc1nccc(-c2c[nH][nH]c2=O)n1	-12.17	-10.16
Cc1cnn(CC2CCCN2C(=O)c2cc(C)nc3[nH]nc(C)c23)c1 (configuration not stated)	-22.41	-25.7
CCSc1ccc(C(=O)N2CCC3(CC2)[C@H](O)C[C@@H]3O)s1	6.863 & 7.131	12.64
CCc1ncc(C(=O)N2CCCN(C3CCCCC3)CC2)cn1	-41.63	-38.03